Measurements reported in the supplement of paper PMC10849652.
Some of the results follow.

The chains behind the UniProt entries cited, without tags or fusion partners. Where a name states a change or a piece, a line headed by the entry shows the natural chain unless it says otherwise.
UniProt O00635: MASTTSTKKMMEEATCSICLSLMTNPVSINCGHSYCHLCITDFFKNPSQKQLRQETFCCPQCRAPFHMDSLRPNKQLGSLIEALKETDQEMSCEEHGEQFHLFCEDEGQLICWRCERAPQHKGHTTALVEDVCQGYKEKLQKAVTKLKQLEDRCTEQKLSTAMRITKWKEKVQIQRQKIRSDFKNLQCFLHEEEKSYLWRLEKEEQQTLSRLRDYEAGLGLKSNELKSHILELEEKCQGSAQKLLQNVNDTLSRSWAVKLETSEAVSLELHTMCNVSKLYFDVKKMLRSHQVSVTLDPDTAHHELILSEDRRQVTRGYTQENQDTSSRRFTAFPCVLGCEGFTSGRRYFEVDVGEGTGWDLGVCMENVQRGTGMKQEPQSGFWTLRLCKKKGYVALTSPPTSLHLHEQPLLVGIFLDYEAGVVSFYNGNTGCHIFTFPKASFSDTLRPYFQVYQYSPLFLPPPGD
UniProt Q96FX7: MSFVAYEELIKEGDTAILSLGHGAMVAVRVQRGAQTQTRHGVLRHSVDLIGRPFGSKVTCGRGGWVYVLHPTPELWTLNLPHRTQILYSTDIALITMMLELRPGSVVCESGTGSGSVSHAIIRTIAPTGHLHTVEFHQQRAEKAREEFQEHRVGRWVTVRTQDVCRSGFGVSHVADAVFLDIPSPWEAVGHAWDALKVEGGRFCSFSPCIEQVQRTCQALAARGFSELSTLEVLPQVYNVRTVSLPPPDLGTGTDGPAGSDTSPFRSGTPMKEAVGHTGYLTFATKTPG
UniProt O95900: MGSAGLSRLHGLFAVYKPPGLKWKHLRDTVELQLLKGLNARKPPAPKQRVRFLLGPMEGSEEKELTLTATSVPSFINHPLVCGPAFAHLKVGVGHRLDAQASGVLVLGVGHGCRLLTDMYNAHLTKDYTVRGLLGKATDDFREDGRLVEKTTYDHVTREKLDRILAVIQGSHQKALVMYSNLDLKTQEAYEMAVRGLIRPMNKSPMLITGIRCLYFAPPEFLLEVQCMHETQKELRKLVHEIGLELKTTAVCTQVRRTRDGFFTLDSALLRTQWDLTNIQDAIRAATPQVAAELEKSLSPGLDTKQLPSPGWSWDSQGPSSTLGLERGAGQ
UniProt Q9BW30: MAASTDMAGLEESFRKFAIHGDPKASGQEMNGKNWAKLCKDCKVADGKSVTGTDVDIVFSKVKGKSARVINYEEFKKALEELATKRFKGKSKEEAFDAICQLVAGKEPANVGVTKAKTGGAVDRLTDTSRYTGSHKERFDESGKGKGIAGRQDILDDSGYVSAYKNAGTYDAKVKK
UniProt Q9C035: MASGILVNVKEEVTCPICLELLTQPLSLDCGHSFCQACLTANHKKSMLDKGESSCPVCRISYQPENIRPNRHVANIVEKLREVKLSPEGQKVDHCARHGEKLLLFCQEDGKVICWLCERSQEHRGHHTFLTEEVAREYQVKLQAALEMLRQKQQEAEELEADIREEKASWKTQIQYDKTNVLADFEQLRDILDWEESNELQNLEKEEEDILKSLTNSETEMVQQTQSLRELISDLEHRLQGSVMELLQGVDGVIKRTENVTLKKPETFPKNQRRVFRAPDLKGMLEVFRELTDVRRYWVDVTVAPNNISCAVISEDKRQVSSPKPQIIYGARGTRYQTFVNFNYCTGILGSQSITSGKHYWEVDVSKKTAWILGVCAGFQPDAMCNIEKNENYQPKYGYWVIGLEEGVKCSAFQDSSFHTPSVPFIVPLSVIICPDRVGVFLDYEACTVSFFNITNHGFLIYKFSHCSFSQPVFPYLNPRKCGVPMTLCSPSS
UniProt O14787: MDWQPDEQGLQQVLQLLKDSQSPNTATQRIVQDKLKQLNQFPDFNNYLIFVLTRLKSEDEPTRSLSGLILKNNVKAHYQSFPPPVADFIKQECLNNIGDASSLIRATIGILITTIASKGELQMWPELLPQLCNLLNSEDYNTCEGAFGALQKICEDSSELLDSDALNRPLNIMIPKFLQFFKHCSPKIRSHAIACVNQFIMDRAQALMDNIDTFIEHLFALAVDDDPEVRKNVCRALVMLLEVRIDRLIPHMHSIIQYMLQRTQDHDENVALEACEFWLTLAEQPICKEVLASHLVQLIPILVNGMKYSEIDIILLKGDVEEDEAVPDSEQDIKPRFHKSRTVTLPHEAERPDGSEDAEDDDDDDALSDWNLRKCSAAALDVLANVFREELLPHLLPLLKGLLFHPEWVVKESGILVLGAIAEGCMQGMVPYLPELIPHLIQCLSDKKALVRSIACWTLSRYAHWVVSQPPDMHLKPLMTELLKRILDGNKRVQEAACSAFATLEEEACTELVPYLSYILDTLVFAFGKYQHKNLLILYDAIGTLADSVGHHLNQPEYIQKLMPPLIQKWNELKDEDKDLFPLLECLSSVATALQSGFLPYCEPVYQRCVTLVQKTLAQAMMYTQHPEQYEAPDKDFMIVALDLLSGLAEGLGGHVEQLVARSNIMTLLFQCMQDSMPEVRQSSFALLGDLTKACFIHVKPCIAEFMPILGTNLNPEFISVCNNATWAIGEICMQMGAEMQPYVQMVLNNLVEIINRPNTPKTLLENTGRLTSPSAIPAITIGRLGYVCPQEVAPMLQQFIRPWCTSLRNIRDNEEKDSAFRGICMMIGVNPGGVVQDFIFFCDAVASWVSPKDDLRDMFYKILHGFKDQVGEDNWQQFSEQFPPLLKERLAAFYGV
UniProt Q7Z392: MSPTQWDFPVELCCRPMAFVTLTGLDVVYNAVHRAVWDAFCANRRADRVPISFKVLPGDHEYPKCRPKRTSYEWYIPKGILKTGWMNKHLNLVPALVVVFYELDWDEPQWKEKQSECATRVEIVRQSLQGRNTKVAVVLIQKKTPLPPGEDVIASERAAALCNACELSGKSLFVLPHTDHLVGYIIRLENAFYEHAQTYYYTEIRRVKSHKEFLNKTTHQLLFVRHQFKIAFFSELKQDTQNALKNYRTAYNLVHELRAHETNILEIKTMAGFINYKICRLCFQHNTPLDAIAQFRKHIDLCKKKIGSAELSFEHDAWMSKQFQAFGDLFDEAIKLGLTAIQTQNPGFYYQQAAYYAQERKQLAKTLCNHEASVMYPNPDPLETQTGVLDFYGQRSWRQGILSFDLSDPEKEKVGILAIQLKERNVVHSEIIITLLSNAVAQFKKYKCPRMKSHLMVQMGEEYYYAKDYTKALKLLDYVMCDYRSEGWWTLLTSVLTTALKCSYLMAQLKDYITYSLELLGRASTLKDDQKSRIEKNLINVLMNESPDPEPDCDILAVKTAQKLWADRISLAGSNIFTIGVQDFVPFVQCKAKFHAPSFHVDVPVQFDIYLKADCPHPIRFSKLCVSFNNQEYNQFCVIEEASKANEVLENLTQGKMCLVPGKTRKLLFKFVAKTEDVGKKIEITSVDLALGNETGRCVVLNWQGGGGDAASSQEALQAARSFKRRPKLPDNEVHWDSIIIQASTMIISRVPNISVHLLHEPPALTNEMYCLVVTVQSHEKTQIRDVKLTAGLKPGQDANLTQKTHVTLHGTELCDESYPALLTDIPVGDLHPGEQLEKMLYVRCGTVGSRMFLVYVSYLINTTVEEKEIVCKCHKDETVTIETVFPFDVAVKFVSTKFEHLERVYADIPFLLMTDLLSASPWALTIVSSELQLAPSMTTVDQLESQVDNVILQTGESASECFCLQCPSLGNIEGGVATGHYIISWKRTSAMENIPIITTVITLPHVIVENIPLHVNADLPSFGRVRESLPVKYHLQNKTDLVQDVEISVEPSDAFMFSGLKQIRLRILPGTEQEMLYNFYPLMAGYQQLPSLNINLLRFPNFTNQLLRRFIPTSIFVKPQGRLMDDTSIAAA
UniProt O14773: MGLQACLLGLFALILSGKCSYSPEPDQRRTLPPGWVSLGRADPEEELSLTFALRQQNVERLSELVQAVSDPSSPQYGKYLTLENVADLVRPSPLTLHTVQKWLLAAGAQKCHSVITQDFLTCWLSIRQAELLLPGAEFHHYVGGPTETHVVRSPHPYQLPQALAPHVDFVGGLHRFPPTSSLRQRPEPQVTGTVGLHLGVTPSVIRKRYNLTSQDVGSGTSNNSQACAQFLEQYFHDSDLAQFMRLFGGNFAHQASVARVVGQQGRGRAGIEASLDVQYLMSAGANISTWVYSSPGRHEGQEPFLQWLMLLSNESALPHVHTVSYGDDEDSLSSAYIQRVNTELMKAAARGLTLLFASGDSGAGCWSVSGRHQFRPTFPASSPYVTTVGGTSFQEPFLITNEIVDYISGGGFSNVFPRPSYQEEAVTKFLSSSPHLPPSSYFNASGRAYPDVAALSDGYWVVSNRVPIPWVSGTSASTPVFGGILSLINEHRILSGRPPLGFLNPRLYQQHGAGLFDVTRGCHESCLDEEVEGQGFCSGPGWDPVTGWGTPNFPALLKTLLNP
UniProt Q8TEL6: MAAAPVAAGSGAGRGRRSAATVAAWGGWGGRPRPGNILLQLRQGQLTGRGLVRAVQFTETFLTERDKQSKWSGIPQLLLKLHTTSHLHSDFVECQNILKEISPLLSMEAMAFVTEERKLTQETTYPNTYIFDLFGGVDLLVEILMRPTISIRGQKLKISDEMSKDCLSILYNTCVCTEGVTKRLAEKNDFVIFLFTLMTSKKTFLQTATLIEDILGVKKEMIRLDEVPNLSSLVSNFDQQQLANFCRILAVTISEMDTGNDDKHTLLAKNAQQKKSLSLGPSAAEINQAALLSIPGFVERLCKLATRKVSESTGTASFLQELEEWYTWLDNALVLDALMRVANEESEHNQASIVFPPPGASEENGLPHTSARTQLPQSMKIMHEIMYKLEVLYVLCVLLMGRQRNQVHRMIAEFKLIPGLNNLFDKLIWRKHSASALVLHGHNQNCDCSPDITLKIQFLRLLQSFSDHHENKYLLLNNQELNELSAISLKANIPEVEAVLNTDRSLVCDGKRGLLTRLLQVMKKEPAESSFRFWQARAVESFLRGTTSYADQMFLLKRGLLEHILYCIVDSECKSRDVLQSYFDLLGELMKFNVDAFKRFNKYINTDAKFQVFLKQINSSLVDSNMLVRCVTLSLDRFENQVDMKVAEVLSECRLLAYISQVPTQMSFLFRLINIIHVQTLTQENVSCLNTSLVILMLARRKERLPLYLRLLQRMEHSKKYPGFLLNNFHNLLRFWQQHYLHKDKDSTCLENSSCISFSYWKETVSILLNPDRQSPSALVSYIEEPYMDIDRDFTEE
UniProt Q7L0Y3: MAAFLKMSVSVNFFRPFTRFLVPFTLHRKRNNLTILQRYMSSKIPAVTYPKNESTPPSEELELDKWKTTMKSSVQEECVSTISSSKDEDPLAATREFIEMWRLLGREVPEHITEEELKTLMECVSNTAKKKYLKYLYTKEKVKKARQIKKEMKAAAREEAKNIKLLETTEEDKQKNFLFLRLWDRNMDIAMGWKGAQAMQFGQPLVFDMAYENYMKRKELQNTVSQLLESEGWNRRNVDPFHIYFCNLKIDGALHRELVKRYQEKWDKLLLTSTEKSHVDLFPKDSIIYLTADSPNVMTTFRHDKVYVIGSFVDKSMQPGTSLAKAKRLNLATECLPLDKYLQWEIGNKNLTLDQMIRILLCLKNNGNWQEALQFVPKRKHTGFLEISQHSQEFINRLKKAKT
UniProt Q629K1: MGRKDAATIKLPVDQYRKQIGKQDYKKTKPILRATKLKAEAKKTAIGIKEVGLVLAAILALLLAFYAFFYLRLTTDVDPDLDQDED
UniProt P07951, whole entry, looked up: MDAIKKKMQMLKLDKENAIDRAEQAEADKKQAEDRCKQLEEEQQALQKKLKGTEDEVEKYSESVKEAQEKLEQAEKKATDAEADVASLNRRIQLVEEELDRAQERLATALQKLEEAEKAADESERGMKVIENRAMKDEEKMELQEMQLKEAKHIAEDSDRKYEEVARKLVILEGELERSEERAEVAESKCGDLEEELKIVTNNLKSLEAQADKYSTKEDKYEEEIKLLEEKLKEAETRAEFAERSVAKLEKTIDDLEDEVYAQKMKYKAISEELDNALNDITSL
UniProt Q15388, whole entry, looked up: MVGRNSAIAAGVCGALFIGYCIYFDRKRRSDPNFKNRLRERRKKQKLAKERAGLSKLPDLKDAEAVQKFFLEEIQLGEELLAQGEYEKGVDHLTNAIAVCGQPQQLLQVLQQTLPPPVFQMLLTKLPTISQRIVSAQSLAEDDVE
UniProt Q6ZVM7: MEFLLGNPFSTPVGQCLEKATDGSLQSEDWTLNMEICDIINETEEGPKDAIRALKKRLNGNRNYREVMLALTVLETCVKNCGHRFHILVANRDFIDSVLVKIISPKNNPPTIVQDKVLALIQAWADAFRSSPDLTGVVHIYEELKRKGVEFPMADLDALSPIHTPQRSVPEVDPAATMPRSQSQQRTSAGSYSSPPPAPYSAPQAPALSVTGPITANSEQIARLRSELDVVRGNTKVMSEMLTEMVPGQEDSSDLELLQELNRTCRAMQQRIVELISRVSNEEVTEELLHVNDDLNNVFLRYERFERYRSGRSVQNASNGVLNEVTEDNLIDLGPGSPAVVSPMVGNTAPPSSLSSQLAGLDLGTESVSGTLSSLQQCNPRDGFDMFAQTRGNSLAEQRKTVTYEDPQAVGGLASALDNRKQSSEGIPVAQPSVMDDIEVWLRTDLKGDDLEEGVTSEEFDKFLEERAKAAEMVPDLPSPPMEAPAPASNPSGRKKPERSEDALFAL

Legend:
Assay in all cases: log2 fold change, soluble protein after heating vs DMSO (PISA); higher = thermal stabilisation; K562 cells, 10 uM, 30 min; active = over 0.2 and 3.5 SD of the protein, either way, in both replicates (recomputed)
[1] = compound: CS(=O)(=O)c1ccc(-c2cnc(N)c(C(=O)Nc3ccccc3)n2)cc1
Outline: (§1)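 K562 cells at 2×10^6 cells/mL were treated with 10 μM compound for 30 min. Aliquots were heated for 3 min across 48°C-58°C, pooled, and extracted in PBS with 0.5% NP-40 at 4°C; soluble protein was the supernatant after 21,000xg for 90 min. Soluble protein was quantified by TMTpro 16plex LC-MS/MS with channel sums equalised, and reported as log2 fold change in thermal stability against DMSO controls, with values from duplicates.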

crizotinib = compound: C[C@@H](Oc1cc(-c2cnn(C3CCNCC3)c2)cnc1N)c1c(Cl)ccc(F)c1Cl [crizotinib]
Outline: as §1

[2] = compound: C[C@@H]1COCCN1C2=NC(=NC(=C2)C3(CC3)S(=O)(=O)C)C4=C5C=CNC5=CC=C4
Outline: as §1

[3] = compound: C[C@H](C1=CC=C(C=C1)C(=O)NC2=C3C=CNC3=NC=C2)N
Outline: as §1

gandotinib = compound: Cc1cc(Nc2cc(CN3CCOCC3)c3nc(C)c(Cc4ccc(Cl)cc4F)n3n2)n[nH]1 [gandotinib]
Outline: as §1

[4] = compound: Cc1cc(SCc2sc(-c3ccc(C(F)(F)F)cc3)nc2C)ccc1OCC(=O)O
Outline: as §1

doramapimod = compound: Cc1ccc(-n2nc(C(C)(C)C)cc2NC(=O)Nc2ccc(OCCN3CCOCC3)c3ccccc23)cc1 [doramapimod]
Outline: as §1

ispinesib = compound: Cc1ccc(C(=O)N(CCCN)[C@@H](c2nc3cc(Cl)ccc3c(=O)n2Cc2ccccc2)C(C)C)cc1 [ispinesib]
Outline: as §1

bafetinib = compound: Cc1ccc(NC(=O)c2ccc(CN3CC[C@H](N(C)C)C3)c(C(F)(F)F)c2)cc1Nc1nccc(-c2cncnc2)n1 [bafetinib]
Outline: as §1

[5] = compound: Cc1cccc(CC(=O)N2CCc3c2ccc(-c2cn(C)c4ncnc(N)c24)c3F)n1
Outline: as §1

nilotinib = compound: Cc1cn(-c2cc(NC(=O)c3ccc(C)c(Nc4nccc(-c5cccnc5)n4)c3)cc(C(F)(F)F)c2)cn1 [nilotinib]
Outline: as §1

[6] = compound: Cc1nc(Nc2n[nH]c3c2CN(C(=O)N[C@H](CN(C)C)c2ccccc2)C3(C)C)c2sccc2n1
Outline: as §1

dasatinib = compound: Cc1nc(Nc2ncc(C(=O)Nc3c(C)cccc3Cl)s2)cc(N2CCN(CCO)CC2)n1 [dasatinib]
Outline: as §1

[7] = compound: Cc1ncc(-c2ccnc(Nc3ccc(S(C)(=O)=O)cc3)n2)n1C(C)C
Outline: as §1

[8] = compound: Cn1cc(-c2ccc3c(c2)CCN3C(=O)Cc2cccc(C(F)(F)F)c2)c2c(N)ncnc21
Outline: as §1

[9] = compound: Cn1cc(-c2ccc3nnc(C(F)(F)c4ccc5ncccc5c4)n3n2)cn1
Outline: as §1

tipifarnib = compound: Cn1cncc1[C@@](N)(c1ccc(Cl)cc1)c1ccc2c(c1)c(-c1cccc(Cl)c1)cc(=O)n2C [tipifarnib]
Outline: as §1

mubritinib = compound: FC(F)(F)c1ccc(/C=C/c2nc(COc3ccc(CCCCn4ccnn4)cc3)co2)cc1 [mubritinib]
Outline: as §1

duvelisib = compound: C[C@H](Nc1ncnc2nc[nH]c12)c1cc2cccc(Cl)c2c(=O)n1-c1ccccc1 [duvelisib]
Outline: as §1

tozasertib = compound: Cc1cc(Nc2cc(N3CCN(C)CC3)nc(Sc3ccc(NC(=O)C4CC4)cc3)n2)n[nH]1 [tozasertib]
Outline: as §1

Measured: log2 fold change

TSEN2 (UniProt Q8NCE0)
inactive: [1] -0.198 | crizotinib 0.052 | [2] 0.014 | [3] 0 | gandotinib -0.127 | [4] 0.056 | doramapimod -0.057 | ispinesib -0.074 | bafetinib 0.008 | [5] 0.032 | nilotinib -0.05 | [6] -0.112 | dasatinib -0.132 | [7] -0.034 | [8] 0.05 | [9] -0.013 | tipifarnib -0.005 | mubritinib -0.16

TRIM38 (UniProt O00635)
inactive: [1] -0.211 | crizotinib 0.142 | [2] 0.026 | [3] 0.225 | duvelisib 0.123 | gandotinib 0.024 | [4] 0.046 | doramapimod -0.056 | bafetinib -0.207 | [5] -0.183 | nilotinib -0.144 | [6] -0.001 | dasatinib 0.102 | [7] -0.091 | [8] 0.028 | tipifarnib -0.096 | mubritinib 0.123

TRMT61B (UniProt Q9BVS5)
inactive: [1] -0.037 | crizotinib 0.033 | [2] -0.119 | [3] 0.129 | duvelisib 0.018 | gandotinib 0.094 | tozasertib -0.046 | [4] -0.009 | doramapimod 0.05 | ispinesib -0.072 | bafetinib 0.073 | [5] -0.037 | nilotinib 0.078 | [6] 0.05 | dasatinib 0.051 | [7] 0.006 | [8] 0.002 | [9] -0.105 | tipifarnib 0.141 | mubritinib -0.032

TRMT2A (UniProt Q8IZ69)
inactive: [1] -0.034 | crizotinib -0.016 | [2] -0.072 | [3] 0.152 | gandotinib 0.019 | [4] 0.045 | doramapimod 0.07 | ispinesib -0.122 | bafetinib 0.059 | [5] -0.001 | nilotinib 0.021 | [6] -0.048 | dasatinib -0.019 | [7] -0.064 | [8] 0 | [9] 0.009 | tipifarnib 0.03 | mubritinib -0.005

TP53BP1 isoform 2 (UniProt Q12888)
inactive: [1] 0.025 | crizotinib 0.076 | [2] -0.001 | [3] 0.018 | gandotinib -0.053 | [4] 0.066 | doramapimod 0.036 | ispinesib 0.002 | bafetinib 0.004 | [5] 0.008 | nilotinib -0.001 | [6] -0.011 | dasatinib -0.009 | [7] -0.027 | [8] -0.064 | [9] -0.014 | tipifarnib 0.016 | mubritinib -0.002

TRMT61A (UniProt Q96FX7)
inactive: [1] -0.017 | crizotinib -0.046 | [2] -0.201 | [3] 0.168 | gandotinib 0.168 | [4] 0.106 | doramapimod 0.011 | ispinesib -0.093 | bafetinib -0.051 | [5] 0.047 | nilotinib 0.036 | [6] 0.046 | dasatinib 0.011 | [7] -0.07 | [8] -0.11 | [9] -0.016 | tipifarnib 0.043 | mubritinib -0.125

TRUB2 (UniProt O95900)
inactive: [1] 0.323 | crizotinib 0.143 | [2] -0.026 | duvelisib 0.145 | gandotinib 0.018 | [4] -0.057 | doramapimod 0.549 | [5] 0.059 | dasatinib -0.03 | tipifarnib 0.069

TPPP3 (UniProt Q9BW30)
inactive: [1] 0.083 | crizotinib 0.1 | [2] 0.065 | doramapimod 0.002 | ispinesib 0.021 | [9] 0.055

TRAPPC1 (UniProt Q9Y5R8)
inactive: [1] 0.038 | crizotinib 0.002 | [3] -0.045 | duvelisib 0.007 | gandotinib -0.028 | tozasertib -0.015 | [4] 0.034 | doramapimod 0.151 | ispinesib -0.057 | bafetinib -0.019 | [5] 0.139 | nilotinib -0.213 | [6] 0.029 | dasatinib -0.134 | [7] -0.077 | [8] 0.095 | [9] 0.003 | tipifarnib -0.016 | mubritinib -0.035

TRIM5 (UniProt Q9C035)
active: ispinesib -0.821
inactive: [1] -0.032 | [2] 0.037 | [3] 0.148 | [4] -0.127 | dasatinib -0.088 | [8] 0.013 | [9] 0.133

TRIM23 (UniProt P36406)
inactive: [1] 0.143 | crizotinib 0.152 | [3] -0.122 | gandotinib 0.128 | [4] 0.001 | doramapimod -0.043 | ispinesib 0.115 | bafetinib -0.006 | [5] -0.121 | nilotinib -0.091 | [6] 0.001 | dasatinib -0.004 | [7] 0.088 | [8] 0.126 | [9] 0.002 | mubritinib 0.028

TREML2 (UniProt Q5T2D2)
inactive: [1] 0.182 | crizotinib -0.043 | duvelisib 0.04 | [4] 0.038 | doramapimod 0.14 | bafetinib 0.181 | dasatinib -0.013 | mubritinib 0.119

Reprinted from the results shown (2 entries):
TRUB2 (UniProt O95900)
inactive: [1] 0.323 | crizotinib 0.143 | [2] -0.026 | duvelisib 0.145 | gandotinib 0.018 | [4] -0.057 | doramapimod 0.549 | [5] 0.059 | dasatinib -0.03 | tipifarnib 0.069

TPPP3 (UniProt Q9BW30)
inactive: [1] 0.083 | crizotinib 0.1 | [2] 0.065 | doramapimod 0.002 | ispinesib 0.021 | [9] 0.055

(cont.)

TNPO2 (UniProt O14787)
inactive: [1] 0.019 | crizotinib -0.153 | [2] 0.046 | [3] -0.037 | gandotinib -0.059 | [4] 0.048 | doramapimod 0.011 | ispinesib -0.14 | bafetinib -0.004 | [5] 0.129 | nilotinib -0.122 | [6] -0.111 | dasatinib -0.173 | [7] -0.087 | [8] -0.076 | [9] -0.011 | tipifarnib -0.011 | mubritinib 0.043

TRAPPC11 (UniProt Q7Z392)
inactive: [1] -0.004 | crizotinib 0.008 | [2] 0.051 | [3] 0.075 | gandotinib -0.047 | [4] 0.1 | doramapimod 0.028 | ispinesib -0.079 | bafetinib 0.065 | [5] 0.05 | nilotinib -0.098 | [6] -0.129 | dasatinib -0.159 | [7] 0.01 | [8] -0.04 | [9] -0.03 | tipifarnib -0.06 | mubritinib 0.04

TPP1 (UniProt O14773)
inactive: [1] 0.025 | [2] 0.022 | [3] -0.026 | gandotinib 0.049 | [4] -0.016 | doramapimod 0.008 | ispinesib -0.189 | [5] 0.007 | nilotinib 0.008 | [6] -0.031 | dasatinib -0.051 | [7] 0.022 | [8] -0.025 | [9] 0 | tipifarnib 0.049 | mubritinib -0.001
active: crizotinib -0.371 | bafetinib -0.48

TRPC4AP (UniProt Q8TEL6)
inactive: [1] -0.191 | crizotinib -0.018 | [2] -0.049 | duvelisib 0.094 | gandotinib -0.02 | tozasertib -0.032 | [4] -0.035 | doramapimod 0.104 | ispinesib -0.094 | [5] -0.081 | nilotinib -0.025 | [6] 0.219 | dasatinib -0.04 | [7] -0.007 | [9] -0.044 | tipifarnib 0.171 | mubritinib 0.097

TNFRSF8 (UniProt P28908)
inactive: [1] 0.051 | crizotinib 0.15 | [2] 0.009 | [3] -0.073 | gandotinib 0.012 | [4] -0.063 | doramapimod -0.011 | ispinesib 0.029 | bafetinib 0.01 | [5] -0.089 | nilotinib 0.074 | [6] -0.049 | dasatinib 0.032 | [7] 0.043 | [8] 0.014 | [9] 0.032 | tipifarnib 0.042 | mubritinib 0.069

TRIP11 (UniProt Q15643)
inactive: [1] 0.059 | crizotinib -0.006 | [2] 0.034 | duvelisib -0.102 | gandotinib 0.308 | tozasertib -0.01 | [4] 0.037 | doramapimod -0.011 | ispinesib -0.306 | bafetinib -0.049 | [5] 0.029 | nilotinib 0.151 | [6] 0.005 | dasatinib -0.337 | [7] 0.028 | [9] -0.066 | tipifarnib 0.054 | mubritinib 0.064

TRMT10C (UniProt Q7L0Y3)
inactive: [1] 0.045 | crizotinib 0.03 | [2] 0.109 | [3] -0.013 | gandotinib -0.072 | [4] 0.069 | doramapimod -0.008 | ispinesib 0.017 | bafetinib -0.044 | [5] 0.107 | nilotinib -0.043 | [6] -0.066 | dasatinib -0.181 | [7] 0.012 | [8] 0.046 | [9] 0.038 | tipifarnib -0.037 | mubritinib 0.153

TRIQK (UniProt Q629K1)
inactive: [1] 0.003 | crizotinib 0.024 | [2] 0.072 | [3] 0.017 | [4] -0.006 | doramapimod 0.008 | ispinesib 0.182 | bafetinib -0.059 | dasatinib 0.007 | [8] -0.007 | [9] -0.03 | mubritinib -0.002

TRIO (UniProt O75962)
inactive: [1] 0.057 | crizotinib -0.021 | [2] 0.233 | tozasertib -0.035 | doramapimod 0.084 | ispinesib -0.171 | bafetinib -0.056 | nilotinib -0.006 | [6] 0.052 | [7] -0.042 | [9] 0.156 | mubritinib 0.163

TPM2 (UniProt P07951)
inactive: [1] -0.016 | crizotinib -0.012 | [2] -0.167 | [3] -0.29 | gandotinib -0.046 | [4] -0.117 | doramapimod 0.059 | ispinesib 0.122 | bafetinib 0.034 | [5] 0.003 | nilotinib 0.126 | [6] -0.097 | dasatinib 0.072 | [7] 0.064 | [8] -0.019 | [9] -0.015 | tipifarnib 0.086 | mubritinib 0.025

TOMM20 (UniProt Q15388)
inactive: [1] -0.068 | crizotinib -0.019 | [2] 0.058 | [3] -0.06 | gandotinib 0.116 | [4] -0.062 | doramapimod -0.025 | bafetinib -0.194 | [5] -0.035 | nilotinib -0.002 | [6] -0.031 | dasatinib 0.039 | [7] 0.01 | [8] 0.003 | [9] 0.006 | tipifarnib -0.095 | mubritinib 0.017
active: ispinesib -0.358

TOM1L2 (UniProt Q6ZVM7)
inactive: [1] 0.03 | crizotinib 0.101 | [2] 0.118 | [3] 0.087 | [4] 0.035 | doramapimod 0.02 | nilotinib -0.047 | [6] -0.127 | dasatinib -0.091 | [7] -0.125 | [8] 0.028

TOM1 (UniProt O60784)
inactive: [1] -0.04 | crizotinib -0.054 | [2] -0.05 | gandotinib -0.018 | doramapimod 0.052 | bafetinib -0.288 | [5] -0.105 | mubritinib -0.222
